Construct, isoform or probe ends are uncertain for at least one entry. For some of these results: No signal at the amounts used counts as a negative. For some of these results: Protein sequences can lack the tags named with them.
Experiments:
[1] = target: T1, DmMBD2/3 MBD, tag removed (Drosophila melanogaster) (UniProt Q9VHB7); experiment: NMR; conditions: 15N-HSQC, no chemical shift changes, recombinant protein, residues 1-87, protein details: thioredoxin tag cleaved by thrombin
T1 sequence (looked up): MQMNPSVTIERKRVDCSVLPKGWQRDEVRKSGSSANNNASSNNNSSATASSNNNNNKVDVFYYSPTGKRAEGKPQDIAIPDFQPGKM

[2] = test system: EmMBD2/3 MBD, tag removed (Ephydatia muelleri); experiment: NMR; conditions: 15N-HSQC, recombinant protein, protein details: thioredoxin tag cleaved by thrombin

| Sequence | binding result [1] | binding result ([2]; fast exchange of CpG-specific and non-specific modes) | binding result ([1]; 5-methyl-C at C9 of strand 1 and C8 of strand 2 (central CpG)) | binding result ([2]; localizes almost exclusively to mCpG, 5-methyl-C at C9 of strand 1 and C8 of strand 2 (central CpG)) |
| --- | --- | --- | --- | --- |
| GAGGCGCTCGGCGGCAG (double strand) [CpG(x3) 17 bp] | no binding | binds |  |  |
| GAGGCGCTCGGCGGCAG (double strand) [mCpG 17 bp] |  |  | no binding | binds |

From article PMC5240623
